Test results reported in PubChem BioAssay AID488840 (Broad Institute, 2010).
Out of some 1,400 compounds screened, about 45 (3%) were called active.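 Rule for the calls: active = half-maximal dose of signal decrease from fit no higher than ten times the top valid tested dose; inconclusive = fit invalid, or curve flat with 30 to 70% inhibition; inactive = the rest.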 This is one part of the list. Results with a measured potency or affinity are listed apart.

Chains of the proteins cited; added tags and fusions are not shown. Lines headed by an entry give the natural chain unless they say otherwise; changes in a name come on top.
UniProt O75164: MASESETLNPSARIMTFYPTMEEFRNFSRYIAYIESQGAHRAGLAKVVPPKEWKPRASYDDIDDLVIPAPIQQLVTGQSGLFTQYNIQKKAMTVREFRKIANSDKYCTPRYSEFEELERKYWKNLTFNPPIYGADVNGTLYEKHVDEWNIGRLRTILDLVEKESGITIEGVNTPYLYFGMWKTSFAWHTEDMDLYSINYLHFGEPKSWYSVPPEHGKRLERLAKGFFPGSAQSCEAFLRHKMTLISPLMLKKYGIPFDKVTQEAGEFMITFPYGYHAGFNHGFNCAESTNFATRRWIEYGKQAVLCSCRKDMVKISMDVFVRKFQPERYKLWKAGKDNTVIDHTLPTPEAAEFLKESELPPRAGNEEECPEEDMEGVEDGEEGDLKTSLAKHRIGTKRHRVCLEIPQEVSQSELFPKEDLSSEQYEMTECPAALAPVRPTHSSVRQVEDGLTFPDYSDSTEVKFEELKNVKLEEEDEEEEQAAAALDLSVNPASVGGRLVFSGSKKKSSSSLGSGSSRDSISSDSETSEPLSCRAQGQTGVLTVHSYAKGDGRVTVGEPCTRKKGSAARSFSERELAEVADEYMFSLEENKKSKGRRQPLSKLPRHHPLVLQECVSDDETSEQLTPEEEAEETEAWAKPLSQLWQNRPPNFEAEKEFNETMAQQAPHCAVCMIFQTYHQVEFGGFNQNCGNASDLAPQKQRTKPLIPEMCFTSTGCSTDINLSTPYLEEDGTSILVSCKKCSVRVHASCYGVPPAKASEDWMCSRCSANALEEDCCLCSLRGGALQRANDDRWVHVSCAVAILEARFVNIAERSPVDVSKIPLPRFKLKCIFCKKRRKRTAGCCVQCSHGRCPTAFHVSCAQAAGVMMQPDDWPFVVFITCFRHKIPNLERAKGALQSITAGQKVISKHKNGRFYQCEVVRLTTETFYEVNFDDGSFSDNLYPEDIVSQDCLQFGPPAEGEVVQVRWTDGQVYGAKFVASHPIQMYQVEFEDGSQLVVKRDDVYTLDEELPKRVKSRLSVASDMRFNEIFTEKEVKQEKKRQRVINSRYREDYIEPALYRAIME

target: Lysine-specific demethylase 4A (Homo sapiens) (UniProt O75164); assay: inhibition of JMJD2A H3K9me3 demethylation – biochemical, DELFIA europium, cherry-picked samples, selectivity assay for GASC-1 inhibitor project, dose response (AID 488840); conditions: GST-JMJD2A(1-420) H3K9me3 demethylation; at 6 µM (top of the series) unless noted;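 note: europium signal reports the dimethyl H3K9 product detected by antibody so inhibitors lower it; 0% = median of neutral control wells and -100% = median of positive control wells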

Activity change, negative = inhibition, inactive:
COc1ccc(CC(=O)Nc2ccc(S(=O)(=O)N(C)C)cc2)cc1OC 5.99%, O=C(CSc1nnc(CNC(=O)c2ccco2)o1)NC1CCCC1 6.13%, Cc1nc(C(C)NC(=O)CCc2nnc(CCCc3ccccc3)o2)c(C)s1 (stereo not drawn) -0.411%, CCOC(=O)c1sc(=S)n(-c2ccc(Cl)cc2)c1SC -0.619%, N#Cc1ccc(OCC(=O)Nc2ccccc2NS(=O)(=O)c2cccs2)cc1 -0.213%, CCOc1ccc(CN(C)CC(=O)Nc2cc(C)c(C)cc2[N+](=O)[O-])cc1 -2.71%, COc1ccc(NC(=S)NCCCn2ccnc2)cc1 3.84%, O=C(OCCCOC(=O)c1ccc(Br)o1)c1ccc(Br)o1 3.48%, Cc1ccc(-c2noc(C3CCN(S(C)(=O)=O)CC3)n2)o1 -5.49%, O=c1c2cnn(-c3ccccc3)c2nc(-c2cccs2)n1-c1ccc(Cl)cc1 8.94%, Cc1nnc(-c2cccc(Br)c2)c2cn(-c3ccccc3Cl)nc12 3.49%, COc1ccc(Nc2ncnc3sc(-c4ccccc4)cc23)cc1OC -1.17%, CCC(=O)Nc1cc2c(cc1C(=O)CC)OCCO2 -2.03%, CCOc1cc(NC(=S)NCCOC)c(OCC)cc1NC(=O)c1cccs1 1.19%, CC(=O)N/C(=C\c1ccccc1)C(=O)OCC(=O)NC1CCCC1 1.36%, O=C(O)c1ccc2c(c1)C(=O)N(CCC1=CCCCC1)C2=O -1.94%, C#CCOCCOCCOCCNc1nc(N2CCN(C(=O)C([C@@H](C)O)n3cc([C@@H](N)CCCCN)nn3)CC2)nc(N2CCN(C(=O)[C@H](CC(N)=O)n3cc([C@@H](N)C(C)C)nn3)CC2)n1 (stereo partly drawn) 0.979%, Cc1ccc2nc(-c3cccc(NS(C)(=O)=O)c3)cc(-c3ccccc3)c2c1 1.92%, C=CCNC(=S)Nc1ccc(N2CCOCC2)c(S(=O)(=O)Nc2ccccc2Cl)c1 4.84%, Cc1c(NC(=O)CCN2C(=O)c3ccccc3C2=O)c(=O)n(-c2ccccc2)n1C 4.24%, CC1CCN(S(=O)(=O)c2ccc3[nH]c(=O)[nH]c3c2)CC1 -2.98%, CC1=NN(C(N)=S)C(=O)C1N=Nc1c(C)cc(C)cc1C (stereo not drawn) 3.02%, CN1CCN(c2nc3ccccn3c(=O)c2/C=C(\C#N)S(=O)(=O)c2ccc(Cl)cc2)CC1 -2.4%
